Data as given in PubChem BioAssay AID720505 (Drosophila RNAi Screening Center, 2013)

- Aim: 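Knock-downs that reduce calcium influx once internal stores are emptied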 (primary screen)
- Cells: Drosophila S2R+ cells
- Reagent: long dsRNA against Drosophila genes
- Challenge: thapsigargin (2 µM) in calcium-free buffer to empty internal stores, then 2 mM calcium added back
- Measured: 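Fluo-4 signal in 384-well plates read on a FLIPR after thapsigargin (2 µM, calcium-free) store depletion and 2 mM calcium add-back; unnormalised mean endpoint per well; screen run twice, selected wells retested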
- Reading the numbers: calcium signal: higher = more calcium entry after store depletion
- Hit rule: 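About 1500 genes called as lowering calcium entry, by varying amounts, judged against per-plate control wells with STIM1 as positive and Rho1 as negative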
- Meaning of the calls: active = called as lowering calcium entry; inactive = not called
In all, the deposit lists about 20,000 reagents; this is an unselected part of those that have a named target and a result. Over the whole deposit, about 2,100 (10%) got an active call. 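Raw plate signals without normalisation; calls rest on control-based scores that were not deposited; replicate 2 separates called from uncalled poorly.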 A number with no mark means an inactive call. The record does not give: the amount of reagent, the time to read-out.

Against RpS21 [SID104180625] the deposit lists calcium signal, replicate 1 = 104; calcium signal, replicate 2 = 123.
With knock-down of eIF2Bbeta [SID104198257], the record shows calcium signal, replicate 1 = 93.6; calcium signal, replicate 2 = 176.
Hs2st [SID104183140] scored calcium signal, replicate 1 = 99.3; calcium signal, replicate 2 = 101.
For CG5446 [SID104182654] the deposit lists calcium signal, replicate 1 = 116; calcium signal, replicate 2 = 142.
With knock-down of for [SID104179987], the record shows calcium signal, replicate 1 = 96.3; calcium signal, replicate 2 = 89.2.
Depletion of for [SID104180610] resulted in: calcium signal, replicate 1 = 118; calcium signal, replicate 2 = 290.
After knock-down of anchor [SID104190653], the screen gave calcium signal, replicate 1 = 158; calcium signal, replicate 2 = 124.
After knock-down of Nepl15 [SID104195422] the results were calcium signal, replicate 1 = 163; calcium signal, replicate 2 = 264.
With knock-down of isoQC [SID104191582] the results were calcium signal, replicate 1 = 149; calcium signal, replicate 2 = 201.
With knock-down of mbf1 [SID104191157], the record shows calcium signal, replicate 1 = 85.3; calcium signal, replicate 2 = 122.
Silencing of pio [SID104184178] resulted in: calcium signal, replicate 1 = 207; calcium signal, replicate 2 = 112.
Against Rbpn-5 [SID104184232], the values are calcium signal, replicate 1 = 148; calcium signal, replicate 2 = 94.7.
CG13308 [SID104189771] scored calcium signal, replicate 1 = 107; calcium signal, replicate 2 = 72.9.
Against CG11555 [SID104180107], the entry reads calcium signal, replicate 1 = 172; calcium signal, replicate 2 = 143.
With knock-down of CG13457 [SID104189796], the screen gave calcium signal, replicate 1 = 91.6; calcium signal, replicate 2 = 111.
With knock-down of RpS9 [SID104191065], the record shows calcium signal, replicate 1 = 67.1 (active); calcium signal, replicate 2 = 61.4.
Knock-down of Lcp65Ad [SID104191003] gave: calcium signal, replicate 1 = 120; calcium signal, replicate 2 = 119.
Against Rrp46 [SID104195329], the values are calcium signal, replicate 1 = 140; calcium signal, replicate 2 = 99.1.

Reformatted: 2 of the entries above.
pio [SID104184178]
- calcium signal, replicate 1: 207
- calcium signal, replicate 2: 112

Rbpn-5 [SID104184232]
- calcium signal, replicate 1: 148
- calcium signal, replicate 2: 94.7

The list goes on.
After knock-down of CG31550 [SID104191989] the results were calcium signal, replicate 1 = 156; calcium signal, replicate 2 = 153.
Against CG31550 [SID104191990], the entry reads calcium signal, replicate 1 = 84; calcium signal, replicate 2 = 153.
For mdu [SID104199652] the deposit lists calcium signal, replicate 1 = 62.3 (active); calcium signal, replicate 2 = 88.5.
For mdu [SID104202549] the deposit lists calcium signal, replicate 1 = 123; calcium signal, replicate 2 = 162.
After knock-down of CG2736 [SID104184106], the screen gave calcium signal, replicate 1 = 135; calcium signal, replicate 2 = 92.6.
Against Cec2 [SID104201516] the deposit lists calcium signal, replicate 1 = 84.6; calcium signal, replicate 2 = 191.
Cyt-c-p [SID104183102] gave calcium signal, replicate 1 = 82.5; calcium signal, replicate 2 = 85.8.
Cib2 [SID104184327] showed calcium signal, replicate 1 = 181; calcium signal, replicate 2 = 99.3.
With knock-down of Tmtc1 [SID104179939], the record shows calcium signal, replicate 1 = 82.5; calcium signal, replicate 2 = 132.
Silencing of Tmtc1 [SID104179943] resulted in: calcium signal, replicate 1 = 115; calcium signal, replicate 2 = 129.
After knock-down of Tmtc1 [SID104180106] the results were calcium signal, replicate 1 = 192; calcium signal, replicate 2 = 154.
Knock-down of Tmtc1 [SID104180203] came out at: calcium signal, replicate 1 = 183; calcium signal, replicate 2 = 148.
